Results of single-concentration screens

The chains behind the UniProt entries cited, without tags or fusion partners. Residues count along the entry.
UniProt I6X8D2, whole entry: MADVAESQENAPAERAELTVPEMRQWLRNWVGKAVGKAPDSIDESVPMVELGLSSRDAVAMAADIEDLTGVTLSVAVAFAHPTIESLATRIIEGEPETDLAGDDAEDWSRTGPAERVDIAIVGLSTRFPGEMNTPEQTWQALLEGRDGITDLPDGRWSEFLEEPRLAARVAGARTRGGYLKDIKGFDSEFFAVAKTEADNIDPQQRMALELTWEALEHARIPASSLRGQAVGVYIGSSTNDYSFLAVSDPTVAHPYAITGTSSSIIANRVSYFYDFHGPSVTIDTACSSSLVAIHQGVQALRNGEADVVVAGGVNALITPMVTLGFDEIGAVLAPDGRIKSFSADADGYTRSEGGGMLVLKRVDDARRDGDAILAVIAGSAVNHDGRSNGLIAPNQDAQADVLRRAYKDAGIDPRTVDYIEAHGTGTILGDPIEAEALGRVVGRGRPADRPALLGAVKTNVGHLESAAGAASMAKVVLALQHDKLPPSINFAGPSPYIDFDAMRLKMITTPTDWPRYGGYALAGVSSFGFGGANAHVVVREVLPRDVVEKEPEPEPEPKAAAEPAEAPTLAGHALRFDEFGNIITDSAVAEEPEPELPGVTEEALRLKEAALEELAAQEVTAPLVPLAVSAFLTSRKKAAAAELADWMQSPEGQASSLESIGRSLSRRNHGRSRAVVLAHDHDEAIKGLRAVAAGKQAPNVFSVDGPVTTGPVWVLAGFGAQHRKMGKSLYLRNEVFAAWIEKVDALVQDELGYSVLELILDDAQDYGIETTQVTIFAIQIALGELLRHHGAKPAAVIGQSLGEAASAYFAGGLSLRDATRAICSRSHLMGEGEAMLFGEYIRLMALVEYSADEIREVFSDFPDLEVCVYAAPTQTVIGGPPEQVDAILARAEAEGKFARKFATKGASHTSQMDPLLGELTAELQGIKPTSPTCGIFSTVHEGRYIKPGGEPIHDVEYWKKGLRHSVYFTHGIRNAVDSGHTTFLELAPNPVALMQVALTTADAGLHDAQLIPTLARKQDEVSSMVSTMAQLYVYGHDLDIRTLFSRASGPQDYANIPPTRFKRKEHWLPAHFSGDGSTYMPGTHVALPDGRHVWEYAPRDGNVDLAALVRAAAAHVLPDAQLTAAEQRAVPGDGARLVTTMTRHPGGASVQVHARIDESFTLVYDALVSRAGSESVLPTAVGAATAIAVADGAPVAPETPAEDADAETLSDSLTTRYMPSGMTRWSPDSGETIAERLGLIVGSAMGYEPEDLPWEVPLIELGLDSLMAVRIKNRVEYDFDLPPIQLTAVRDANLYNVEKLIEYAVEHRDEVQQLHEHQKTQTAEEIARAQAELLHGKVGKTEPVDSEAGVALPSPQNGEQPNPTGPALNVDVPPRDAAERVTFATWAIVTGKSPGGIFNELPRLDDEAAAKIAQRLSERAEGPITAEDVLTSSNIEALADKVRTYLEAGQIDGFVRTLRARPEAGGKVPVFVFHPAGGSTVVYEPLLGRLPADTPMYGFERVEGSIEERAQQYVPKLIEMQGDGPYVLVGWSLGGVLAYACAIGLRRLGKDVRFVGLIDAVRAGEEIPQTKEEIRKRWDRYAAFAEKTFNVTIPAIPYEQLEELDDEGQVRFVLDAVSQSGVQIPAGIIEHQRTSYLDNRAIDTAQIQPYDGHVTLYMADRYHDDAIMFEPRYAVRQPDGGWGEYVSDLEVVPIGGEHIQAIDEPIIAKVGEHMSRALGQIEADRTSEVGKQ
UniProt P9WFT3, whole entry: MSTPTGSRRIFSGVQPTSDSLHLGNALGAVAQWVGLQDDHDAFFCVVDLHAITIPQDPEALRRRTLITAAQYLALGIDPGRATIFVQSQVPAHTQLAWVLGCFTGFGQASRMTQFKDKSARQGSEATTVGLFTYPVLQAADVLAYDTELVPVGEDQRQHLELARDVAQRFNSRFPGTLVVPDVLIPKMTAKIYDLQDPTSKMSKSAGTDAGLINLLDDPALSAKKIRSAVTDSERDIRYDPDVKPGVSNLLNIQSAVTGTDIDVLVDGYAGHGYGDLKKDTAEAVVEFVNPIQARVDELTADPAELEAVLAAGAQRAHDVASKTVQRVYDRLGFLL
UniProt P9WNZ1, whole entry: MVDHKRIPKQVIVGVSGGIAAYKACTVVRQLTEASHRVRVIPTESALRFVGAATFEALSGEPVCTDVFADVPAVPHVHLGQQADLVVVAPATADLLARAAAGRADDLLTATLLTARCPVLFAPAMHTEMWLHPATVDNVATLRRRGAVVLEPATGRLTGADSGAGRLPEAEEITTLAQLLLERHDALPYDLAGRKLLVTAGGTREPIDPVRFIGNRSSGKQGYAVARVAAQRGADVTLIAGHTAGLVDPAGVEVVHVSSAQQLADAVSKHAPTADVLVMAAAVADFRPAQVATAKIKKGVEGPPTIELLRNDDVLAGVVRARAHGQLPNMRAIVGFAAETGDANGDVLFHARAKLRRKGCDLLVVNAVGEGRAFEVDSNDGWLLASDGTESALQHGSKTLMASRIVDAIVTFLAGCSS
UniProt Q8IDJ8, 1-583: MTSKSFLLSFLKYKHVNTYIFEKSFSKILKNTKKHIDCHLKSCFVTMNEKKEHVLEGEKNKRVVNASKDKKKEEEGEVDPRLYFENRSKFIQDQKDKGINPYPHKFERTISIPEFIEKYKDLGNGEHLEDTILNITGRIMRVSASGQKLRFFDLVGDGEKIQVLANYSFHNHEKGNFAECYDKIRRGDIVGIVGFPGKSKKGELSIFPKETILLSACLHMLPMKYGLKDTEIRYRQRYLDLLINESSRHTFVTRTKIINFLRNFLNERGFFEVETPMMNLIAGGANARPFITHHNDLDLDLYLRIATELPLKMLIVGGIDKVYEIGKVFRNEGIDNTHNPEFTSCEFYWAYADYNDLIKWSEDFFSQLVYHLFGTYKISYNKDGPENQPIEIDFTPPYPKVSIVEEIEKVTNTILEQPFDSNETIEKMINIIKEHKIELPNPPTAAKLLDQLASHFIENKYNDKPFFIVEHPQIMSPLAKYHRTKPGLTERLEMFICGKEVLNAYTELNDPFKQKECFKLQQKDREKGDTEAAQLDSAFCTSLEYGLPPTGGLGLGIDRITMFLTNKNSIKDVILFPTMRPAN

From ChEMBL document CHEMBL3988442, “University of Dundee, Small-Polar-MMV Screening Library” (2021).

A: 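Enzyme assay of the thioesterase domain of polyketide synthase 13; the read-out is not stated. Target: Polyketide synthase Pks13, Mycobacterium tuberculosis (UniProt I6X8D2). Compounds at 30 µM. The record gives no direction; the compounds picked for IC50 retests had high values, so higher reads as stronger inhibition. About 67,000 compounds were tested under these conditions; 0.46% (about 300) showed 50% or more at least once.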
B: 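Tryptophan-tRNA ligase, Mycobacterium tuberculosis (UniProt P9WFT3). Enzyme assay of tryptophanyl-tRNA synthetase; the read-out is not stated. Concentration: 10 µM. Higher most likely means stronger inhibition; the record gives no direction and few retests gave an IC50. Size under these conditions: about 65,000 compounds, about 64 of them at 50% or above in at least one test.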
C: 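Enzyme assay of CoaBC with a phosphate dye (Biomol Green) read at 650 nm. Target: Coenzyme A biosynthesis protein CoaBC, Mycobacterium tuberculosis (UniProt P9WNZ1). Tested at 30 µM. Higher reads as stronger inhibition, judged from the few compounds that gave an IC50. Most strong results did not repeat in a second test. About 67,000 compounds were tested under these conditions; 0.06% (about 40) showed 50% or more at least once.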
D: 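Enzyme assay of the cytosolic lysyl-tRNA synthetase in 384-well plates, read by luminescence. Target: Lysine-tRNA ligase, Plasmodium falciparum 3D7 (UniProt Q8IDJ8). Concentration: 30 µM. Direction is inferred from only a few compounds that gave an IC50; most scored high, so higher reads as stronger inhibition. About 69,000 compounds were tested under these conditions; 0.071% (about 49) showed 50% or more at least once.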

The filed quantity is “Percent Effect” (%).
The controls that fix the scale are not given in the record; negative values are as filed.
Compounds were drawn at random from those tested, without regard to their results.

structure: O=c1oc(-c2ccc(F)cc2)nn1CCc1ccncc1
A: 9.15
B: -2.428
C: 4.89
D: 2.918

structure: Cc1nc(NC(=O)C(C)N2CCN(c3ncccn3)CC2)sc1C (centres unmarked)
A: -9.108
B: 2.916
C: -5.159
D: 1.667

structure: O=C(NC1(C(=O)O)CCCC1)C1Cc2cc(F)ccc2O1 (centres unmarked)
B: -4.335
C: 2.609
D: 4.126

structure: COc1cccc2c(=O)n(Cc3ccnc(C)c3)cnc12
A: -2.234
B: 3.267
C: 1.654
D: -1.797

structure: COc1ccc(CCNC(=O)C2CCCOC2)c(Cl)c1 (centres unmarked)
A: -33.15
B: -3.098
C: 2.545
D: 3.748

structure: COc1ccccc1N1CCC(CNC(=O)N(C)Cc2ccco2)C1 (centres unmarked)
A: -14.74
B: -4.727
C: -0.4831
D: 0.3535

structure: COc1ccnc(CNc2nc(C)nc3ccsc23)c1
A: 8.369
B: -2.056
C: 6.258
D: 1.201

structure: CCCNC(=O)c1ccc(S(=O)(=O)NCC2(COC)CCCC2)cc1
A: -18.65
B: -3.488
C: 6.4
D: -3.082

structure: CC(C)(N)C(=O)N1CCCC(C(=O)c2ccc(C(C)(C)C)cc2)C1 (centres unmarked)
A: -8.814
B: 2.449
C: 6.667
D: 6.156

structure: Cc1cnc(Cn2cc(-c3cccc(C(C)N(C)C)c3)nn2)cn1 (centres unmarked)
A: -30.99
B: 6.386
C: -4.113
D: 1.09

structure: O=C(O)c1cnc(OCC2CC2)c(Cl)c1
A: 2.792
B: -2.714
C: -2.822
D: 6.606

structure: N#Cc1ccc(CN(CC(N)=O)C2CCCC2)c(Br)c1
A: -7.543
B: 0.6053
C: 4.435
D: 3.028

structure: NCc1cccc(NC(=O)CCN2CCOCC2)c1
A: -14.89
B: 2.147
C: 1.656
D: 2.974

structure: CN(C)CC(c1ccccc1)N(C)C(=O)c1cccc(NCC(=O)O)c1 (centres unmarked)
A: -29.25
B: -4.072
C: 3.457
D: 3.26

structure: COc1ncccc1NC(=O)N(Cc1ccc(C)o1)C1CC1
A: -20.86
B: 1.998
C: -3.614
D: 1.797

structure: CNC(=O)[C@H]1C[C@H]2OCC[C@H]2N(CC2CCOCC2)C1
A: -21.41
B: -3.253
C: 3.548
D: 2.591

structure: COCCn1ccc2cc(NC(C)=O)ccc21
A: -18.69
B: -0.5297
C: 3.104
D: 4.098